Z-score data for 107 sequences are collected here from PubChem BioAssay AID1508600 (Functional Genomics Laboratory (NCATS/FGL), 2020).

Screen size: about 53,000 sequences; about 3,700 (7%) were called active.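 How the source made its calls: active means gene knockdowns whose robust z-score for IL-1 alpha signal is at least 2 or at most -2, so actives lie on both sides; inactive means the rest.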 The list shows a part of the results.

A short description of the assay: Components of the Cytosolic LPS Sensing Pathway: Gene Identification via Genome-wide siRNA Screen.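 Further: robust z of the log signal after scaling to non-targeting control siRNA wells of the plate.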 The conditions noted are these: RAW264.7 macrophages, IL-1a HTRF, actives lie on both sides, screened at 100 nM (by protocol), cells primed 5 h with Pam3CSK4 first. In a few lines: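 Using IL-1a HTRF as read-out, the screen measured release from RAW264.7 cells after 48h siRNA knockdown (100 nM), 5 h Pam3CSK4 priming and 24 h cytosolic LipidA. Values were expressed relative to negative-control wells as robust z-scores.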
With GCAUCAGAUGCGUUUGCUUTT against Blm, the z-score is inactive: -0.242.
Turning to GGUAAAGACAAGAUUAAAGTT against Cyp39a1, the z-score was inactive: -0.308.
The same measure for GCCAUAUCGCUAAAAUUCUTT against Hoxa10: inactive: 0.0376.
The same measure for GGGAAACAUUUGAAAGCCUTT against Mpp4: inactive: -0.64.
The same measure for GGAAUACAUCGAGUAUCUCTT against Xab2: inactive: -1.43; for GCUAGAGUGACUAUUUUACTT against Acta2: inactive: 1.56.
GGAAACCUAUUUCAUAUAGTT against Pik3cg: the z-score is inactive: -0.234.
The same measure for GCAAACCUUUGUUCAUUCCTT against Prnp: inactive: 0.0629.
The same measure for GCAUGUCCACGUUAGAAUCTT against Fbxw7: inactive: -1.08; for GCUCAUUGAGUACAAGACCTT against Ndufs2: inactive: 1.76.
With CGAUUGGUUGUUGUAGACATT against Abhd11, the z-score is active: -2.56.
The same measure for GGACUUCUUAAUGUUUUACTT against Phf11a: inactive: 0.398; for CGGUUUACAUUCCUGACUUTT against Plekho2: inactive: 1.42; for GGAAGCUUUGGGAAACAGUTT against Bmp2: inactive: -0.226.
The same measure for GCACUACGAUGACUUCCUGTT against Poll: inactive: -0.65.
With UCACAGUGCUUAUCAUUGUTT against Olfr506, the z-score is inactive: -1.73.
The same measure for GCUGGUGCAUUACUGAGGUTT against Olfr69: inactive: 0.434; for CCUAAGGAGACACGAAGCCTT against Cfp: inactive: -0.119; for GGAAUGACUCUAGAAAUGATT against Zc3h13: inactive: -0.7.
Regarding GGUGGUUCCCAUUUCCUUATT against BC004004, the z-score was inactive: -0.183.
The same measure for GGAAACUUUGUUAAAACAGTT against Tank: inactive: 0.503; for “GGCAUUUUCUUAUUCAUUGTT against 4933414I15Rik”: inactive: 1.48; for CCACUAUGUUCUGUGGCAATT against Olfr736: active: -2.33.
The same measure for GGUCAAUAUGCAGAAAAUGTT against Eif4g2: inactive: -1.7; for CCAGAUACAUCUACAACCGTT against H2-Ab1: inactive: -0.9; for GGGCAAAUGUAAAAAGACUTT against Fst: inactive: 1.28.
As for GGAGCAGGAUUUUGGCAGUTT against Casp2, the z-score was inactive: 0.291.
The same measure for GCUUGUGCUCUAAAUAUGATT against Trim52: inactive: 0.443; for GGAAAUAGUUGGUUUUGAATT against Slfn1: inactive: -1.95.
The same measure for GGCCUUUGUCCUUGUCUUCTT against Syvn1: inactive: 0.101; for GGAGGACUCUGCUUCCAUATT against Pwwp3b: inactive: -0.848; for GGAAAAUUGGUACCAACUUTT against Mtfr1: inactive: -0.657.
The same measure for GGGAACAUACUUCCUAAAGTT against Ermn: inactive: 1.57; for GGUAUCCCUAACUGGCAGUTT against Tro: inactive: -0.849; for CCCACUUUAACCCUUUAUUTT against Plppr1: inactive: 0.507.
CGACGUGAUCACCAAAGGCTT against Map3k14: the z-score was inactive: -0.454.
The same measure for GGAUUUCUAGACUUUAGGATT against Xcr1: inactive: 0.6.
The same measure for GGUGAUAGGUGUUAGACUATT against Txnl4a: inactive: 0.657.
The same measure for GGUCUCCAUCACAUUCAAGTT against BC024139: inactive: 1.19; for GGGCUGUUAUUUCAAGAAATT against Galnt13: inactive: -0.173; for GGAAACCAUCAUGAAGAAATT against Siae: inactive: -0.127.
On to CGUAUAAUGAGGAUGUGCUTT against Znrf2, for which the z-score is inactive: -0.384.
The same measure for GGUAAUUACGACCUAUUGUTT against Aldh7a1: inactive: 0.719; for ACCUCAGACUCUUCAACUGTT against Olfr112: inactive: -1.61.
On to CGUCAGAUUGACAAGGCACTT against Serpinb7, for which the z-score was inactive: 0.774.
The same measure for GCUAGAUAUAUUUGCCCACTT against Mpp6: inactive: 1.4; for GGUCUACUGAUAUAAUCAATT against Kif11: inactive: -0.351; for GGCUAAGGCCACAAAUGUGTT against Tacc3: inactive: -0.371.
The same measure for GGCAGCCAGUGUGCUAAAATT against Atp6v1h: inactive: 1.13; for “GGAUGAUGAUGGCUUCAUCTT against 2610528J11Rik”: inactive: -1.27; for GGGAGAUAUCUUCUCAGUATT against Psmb11: inactive: 1.5.
The same measure for GGCGACAGCGUAAAAGUACTT against Lyst: inactive: -0.347; for GCUCCUCUAUAUUUGAAAGTT against Cx3cl1: inactive: -1.49.
Consider GGAUAUGAUGUCAGACAACTT against Zdhhc13, for which the z-score is inactive: -1.13.
The same measure for GCCCAGAGUGUUCAAGUGUTT against Zfp236: inactive: 0.968; for GCAAGACUUGUCAUGACACTT against Lnpk: inactive: -1.08; for GGCUAAUAAGUUCAAUCAATT against Ccn4: inactive: -0.0256.
Turning to GGCAGAACUCAAAUUCUUGTT against AW209491, the z-score was inactive: -0.35.
The same measure for GCCUGAAUUUUUGGGCAUATT against Ripk2: inactive: -0.496.
In the case of GGAAGUUGUCCAAGCAAAUTT against Sesn3, the z-score is inactive: 0.525.
On to GCACAGAAGUUAUUUAGCUTT against Fcho2, for which the z-score is inactive: -0.751.
The same measure for GCUAGCACAAACAAAAUGUTT against Prr9: inactive: 0.117; for GGGACUAUUCCUCCAGAGUTT against Cast: inactive: -0.439.
The same measure for GGACGAGAAGAUCAACAUCTT against Trim54: inactive: 1.34; for GGUCCUGAAUUUCAUCCUUTT against B4galnt2: inactive: 0.459.
As to CCGAGGAUGCUAUUUAAUCTT against Olfr183, the z-score was inactive: 1.59.
The same measure for GGGUUGGAACAAGGUAAUUTT against Usp16: inactive: -0.546; for GGGCCAUGUAUCUUGACAUTT against ccdc198: inactive: -0.215.
As to GAUAGUGACAUUCUUGGAATT against Hspe1, the z-score is inactive: -0.0797.
For the sequence GGGAACCACACAGAGAUAATT against Cd160, the z-score was inactive: 0.0108.
The same measure for GGUUUGCCAAGAAAACUUATT against Rnf145: inactive: 0.0529.
The same measure for GGAGGAAAAUGAUGGAGAGTT against Lysmd1: active: 2.28; for CCCUUGUACAAUAAUAAAGTT against Romo1: inactive: -0.609.
As to GGAUAAGUCAGAGCUAUAUTT against Bicdl2, the z-score is inactive: -1.05.
The same measure for GCAUAAACUUUAGGCAUGGTT against Alg13: inactive: -0.123; for GGGUCACUGAAGAUUAUAUTT against Inhbc: inactive: 0.0519.
The same measure for CCCUCGUCUGAAAUGGAAATT against Nploc4: active: -2.02; for GGUUAAGGAAGUAAAAAAGTT against Gsr: inactive: -0.487; for GGAGAAUAUGUCGUCAUGATT against Gabra3: inactive: -1.09.
The same measure for GUUCCUCAGUAUGUUGCCATT against Olfr126: active: -2.85.
Take GGCAGAAUCUGCUUUAGUUTT against Mob2: the z-score is inactive: 0.441.
On to GCCUUCAACAUUCGGACUUTT against Dnase1, for which the z-score is inactive: 0.185.
The same measure for CCUGCACAGCAAAUACAGUTT against Cenpm: inactive: 0.841; for GGCCCAUUCAGAUCAUCCATT against Vmn1r65: inactive: -0.197; for “GGUUUAAAGAAAGACUGAATT against 2810032G03Rik”: inactive: -0.0773.
With UAAAAUUCCCUUCUGCUCATT against Olfr814, the z-score was inactive: -0.69.
The same measure for GGUGUCAGAACACAUCGCATT against Selenop: inactive: -0.225; for CCAAUUAUCCCGGGACCUATT against Ctag2: inactive: -1.47; for CCAGCCUUCAAUUGUGGUCTT against Scn1b: inactive: 0.672.
The same measure for GGACAACUGAACUACCUCGTT against Paqr3: inactive: -0.544; for GGAAAGAAGGACAUGUUGCTT against Fbxo2: inactive: -1.22.
The same measure for GGACUGAAUAUCUUCUUUGTT against Rrh: inactive: 0.0063; for GGUGCUACAAGUGUACUGATT against Zswim2: active: -2.14.
GGCUCAGGACAUGUAUUACTT against Rab30: the z-score was inactive: -1.66.
As to GGGUCUCUGUAUGCAUAUATT against Dbpht1, the z-score is inactive: -0.238.
The same measure for GGCAGUCAGUUUAAAUAAATT against Prr11: inactive: -0.217; for GCGGAUUCACUUCUACUACTT against Acer1: inactive: 0.693.
Regarding GCAUCCUGGCUGCUAUCAUTT against Olfr399, the z-score is inactive: -1.51.
For the sequence GGAGACCCAAGUGAUUCUGTT against Eral1, the z-score is inactive: -1.63.
The same measure for “CCUGUGGGACUCAAUGUUGTT against 2310039H08Rik”: inactive: -0.722; for GGAAUGUGACUGGGCUAGATT against Txndc15: inactive: -0.367.
The same measure for GGCACAUGGCAAUUCAUCATT against Tm4sf20: inactive: -1.08; for GGAUAUUGAUUCAGUCAAGTT against Rac2: inactive: -1.16.
Turning to GGAACCCAUCUCUCAAGCATT against Atp5g1, the z-score was inactive: 0.563.
The same measure for GGCUGAUUAUAUUUUUGGUTT against Ush1g: inactive: 0.671.
Take GGAUUACGAGAACAAAAACTT against Jag1: the z-score was inactive: -0.774.
The same measure for CCACUUAGGUUAGAAAGAATT against R3hdm1: inactive: -0.77.
